Some of these results come from one statement about several compounds together.
Legend:
Fusarium graminearum = type: cell-based; conditions: in vitro
[1] = system: species of the Phyla Oomycota and Basidiomycota and the phylogenetic Classes Leotiomycetes and Dothideomycetes; type: cell-based; conditions: in vitro

Structure (SMILES)	control of a species of the Class Sordariomycetes (summary of Table 2) (Fusarium graminearum)	control of species of Oomycota, Basidiomycota, Leotiomycetes and Dothideomycetes (summary of Table 2) [1]
COc1cc2oc3c(O)c4ccc5cc6c(c(O)c5c4c(O)c3c(=O)c2cc1OC)C(=O)N1CCOC1(C)C6 (stereo not shown) [Cervinomycin A1, cervinomycin A1]	no more than 31%	at least 70%
COc1cc2oc3c(c(=O)c2cc1OC)C(=O)c1c(ccc2cc4c(c(O)c12)C(=O)N1CCOC1(C)C4)C3=O (stereo not shown) [Cervinomycin A2, cervinomycin A2]	no more than 31%	at least 70%

From US20240215582A1, “METHODS OF CONTROLLING PLANT PATHOGENS” (Valent BioSciences LLC, priority 2022, published 2024)
